This is an account of results in patent US11419829B2, “Use of cannabidiol in combination with 5-HT2B receptor agonists or amphetamines in the treatment of epilepsy” (GW Research Limited, priority 2017, dated 2022).

Molecules are shown by their SMILES. Where a name gives a salt, the structure may show the parent alone.

The subject of this data set is MES-induced tonic seizures. The data set is described as follows: Maximal electroshock seizure (MES) test in mice with isobolographic/CalcuSyn DDI analysis. Format: in vivo, mouse. Conditions: median-effect curves, drug alone; m>1 sigmoidal. How it is done:
The study was performed in two phases. […] Secondly, (Experiment B), drug-drug interactions (DDI) and anticonvulsant activities for CBD/FEN in combination were determined.
Experiment A was performed using 160 male, C57Bl6 mice, weighing between 20.1-30.1 g, and Experiment B was performed using 126 male, C57Bl6 mice, weighing between 19.2-26.1 g, purchased from a licensed breeder (Charles River, UK).
The following drugs were used in this study: Purified botanical CBD provided by GW Research Ltd., fenfluramine hydrochloride (FEN) purchased from Sigma Merck. The control vehicle used was 1:1:18 (5% ethanol, 5% Kolliphor EL, 90% saline). […]
Electroconvulsions were produced by application of a fixed current intensity of 30 mA (0.2 sec duration) delivered via corneal electrodes. […] Mice were individually assessed for production of seizure determined by presence or absence of tonic hindlimb extension following current application. […]
For the three fixed-ratio CBD/FEN combinations (1:3, 1:1 and 3:1), calculations were based on Loewe's equation of additivity as follows; x/EE50(CBD)+y/EE50(FEN)=1; where x=the exposure of CBD and y=the exposure at which […], when co-administered with FEN, should theoretically exert the desired/additive 50% effect. […] Similarly, dose proportions were calculated for the CBD/FEN 1:3 and 3:1 ratios based on theoretical additive EE50. […]

As for `C=C(C)[C@@H]1CCC(C)=C[C@H]1c1c(O)cc(CCCCC)cc1O` [CBD, cannabidiol], the “m value of the dose-effect curve” value is listed as 2.6 ± 0.5. With `CCNC(C)Cc1cccc(C(F)(F)F)c1` (centres unmarked) [FEN, fenfluramine hydrochloride, reference compound], the “m value of the dose-effect curve” value was 2.6 ± 0.7.
